Values from PubChem BioAssay AID1159578 (Peter MacCallum Cancer Centre, 2015).
In all, the deposit lists about 18,000 reagents; below is a random part of them. About 1,030 of them (5.7%) were called active. 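Inactive calls also include pools with fewer than 3300 nuclei, whose migration was not assessed.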 Raw values are not corrected between plates. A number with no mark means an inactive call. Not all columns of the deposit are shown. No sequences are given here.

Screen: 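Knock-downs that alter how fast lymphatic endothelial cells migrate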 (primary screen)
System: human lymphatic endothelial cells
Knock-down reagent: siRNA pool against human genes, 40 nM
Timing: 48 h after transfection
Detection: 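Cells stained with dye and imaged after a scratch; covered wound area and nuclei counted, duplicates averaged, migration set against mock wells and turned into a robust z-score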
Reading the numbers: migration robust z-score: higher = faster migration into the scratch; nuclei per well: higher = more cells in the well
Call rule: 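Pools averaging fewer than 3300 nuclei are never called; remaining pools count as changed when migration robust z lies outside -2 to 2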
Meaning of the calls: active = migration changed; inactive = no migration change, or too few cells

| gene | PubChem SID | migration robust z-score | migration class with cell-count check | nuclei per well, duplicate mean |
| --- | --- | --- | --- | --- |
| KRTAP5-4 (keratin associated protein 5-4) | SID255365434 | -0.87 | migration z between -2 and 2; enough cells | 5582 |
| MRGPRX2 (MAS related GPR family member X2) | SID255362417 | -0.78 | migration z between -2 and 2; enough cells | 6590 |
| RALBP1 (ralA binding protein 1) | SID255355453 | 0.13 | migration z between -2 and 2; enough cells | 5130 |
| UTP20 (UTP20 small subunit processome component) | SID255357041 | -0.64 | migration z between -2 and 2; enough cells | 5975 |
| CTDSPL2 (CTD small phosphatase like 2) | SID255357747 | 0.37 | migration z between -2 and 2; enough cells | 3800 |
| HMGB3 (high mobility group box 3) | SID255350221 | -0.19 | migration z between -2 and 2; enough cells | 4834 |
| USP53 (ubiquitin specific peptidase 53) | SID255358066 | 0.13 | migration z between -2 and 2; enough cells | 5525 |
| BID (BH3 interacting domain death agonist) | SID255348542 | 1.01 | migration z between -2 and 2; enough cells | 6457 |
| FOSL1 (FOS like 1, AP-1 transcription factor subunit) | SID255353378 | 0.02 | migration z between -2 and 2; enough cells | 4833 |
| FBXO47 (F-box protein 47) | SID255366011 | -0.47 | migration z between -2 and 2; enough cells | 3618 |
| OR6S1 (olfactory receptor family 6 subfamily S member 1) | SID255365127 | 2.23 (active) | migration z above 2; enough cells | 6472 |
| ASB1 (ankyrin repeat and SOCS box containing 1) | SID255357843 | -0.62 | migration z between -2 and 2; enough cells | 5724 |
| HSD11B2 (hydroxysteroid 11-beta dehydrogenase 2) | SID255350320 | -0.42 | migration z between -2 and 2; enough cells | 5317 |
| NAT14 (N-acetyltransferase 14 (putative)) | SID255359268 | 0.34 | migration z between -2 and 2; enough cells | 6583 |
| DPRX (divergent-paired related homeobox) | SID255366023 | 0.56 | migration z between -2 and 2; enough cells | 6152 |
| AP5B1 (adaptor related protein complex 5 subunit beta 1) | SID255361883 | 0.84 | migration z between -2 and 2; enough cells | 5312 |
| USP39 (ubiquitin specific peptidase 39) | SID255355296 | 0.62 | migration z between -2 and 2; enough cells | 5362 |
| HPGD (15-hydroxyprostaglandin dehydrogenase) | SID255350299 | -0.86 | migration z between -2 and 2; enough cells | 5223 |
| THRB (thyroid hormone receptor beta) | SID255352862 | -2.88 | under 3300 nuclei; migration not judged | 2667 |
| IL10RA (interleukin 10 receptor subunit alpha) | SID255350469 | 0.75 | migration z between -2 and 2; enough cells | 4430 |
| NR1H2 (nuclear receptor subfamily 1 group H member 2) | SID255353070 | 0.26 | migration z between -2 and 2; enough cells | 5279 |
| TMEM243 (transmembrane protein 243) | SID255360244 | -0.4 | migration z between -2 and 2; enough cells | 5832 |
| IKZF1 (IKAROS family zinc finger 1) | SID255354993 | 0.1 | migration z between -2 and 2; enough cells | 7060 |
| TUBG1 (tubulin gamma 1) | SID255353002 | -0.86 | migration z between -2 and 2; enough cells | 4630 |
| MAF (MAF bZIP transcription factor) | SID255350842 | 0.18 | migration z between -2 and 2; enough cells | 4458 |
| IFNA6 (interferon alpha 6) | SID255350404 | -0.76 | migration z between -2 and 2; enough cells | 5360 |
| NELFE (negative elongation factor complex member E) | SID255353344 | 0.18 | migration z between -2 and 2; enough cells | 6374 |
| LRP11 (LDL receptor related protein 11) | SID255361576 | 0.67 | migration z between -2 and 2; enough cells | 7254 |
| MB (myoglobin) | SID255350888 | -0.93 | migration z between -2 and 2; enough cells | 5330 |
| PHETA1 (PH domain containing endocytic trafficking adaptor 1) | SID255363233 | 2.08 (active) | migration z above 2; enough cells | 6918 |
| MLKL (mixed lineage kinase domain like pseudokinase) | SID255363989 | -1.14 | migration z between -2 and 2; enough cells | 3723 |
| NLRP2 (NLR family pyrin domain containing 2) | SID255358752 | 1.95 | migration z between -2 and 2; enough cells | 5119 |
| OR1J2 (olfactory receptor family 1 subfamily J member 2) | SID255356846 | -0.1 | migration z between -2 and 2; enough cells | 5712 |
| FBXW8 (F-box and WD repeat domain containing 8) | SID255356740 | -2.08 (active) | migration z below -2; enough cells | 5822 |
| LIPT1 (lipoyltransferase 1) | SID255357805 | -0.36 | migration z between -2 and 2; enough cells | 5616 |
| ANKFY1 (ankyrin repeat and FYVE domain containing 1) | SID255357740 | -1.18 | migration z between -2 and 2; enough cells | 5438 |
| PAPOLA (poly(A) polymerase alpha) | SID255355441 | 1.06 | migration z between -2 and 2; enough cells | 5396 |
| EVA1C (eva-1 homolog C) | SID255359673 | -1.27 | migration z between -2 and 2; enough cells | 6362 |
| MT1B (metallothionein 1B) | SID255351046 | -0.54 | migration z between -2 and 2; enough cells | 5018 |
| CASKIN2 (CASK interacting protein 2) | SID255359434 | 0.96 | migration z between -2 and 2; enough cells | 6026 |
| IFNK (interferon kappa) | SID255359125 | -2.55 | under 3300 nuclei; migration not judged | 2967 |
| ISL2 (ISL LIM homeobox 2) | SID255360023 | -2.91 (active) | migration z below -2; enough cells | 4010 |
| METTL25 (methyltransferase like 25) | SID255361236 | 0.26 | migration z between -2 and 2; enough cells | 6508 |
| BLOC1S4 (biogenesis of lysosomal organelles complex 1 subunit 4) | SID255358605 | -0.02 | migration z between -2 and 2; enough cells | 5167 |
| GCA (grancalcin) | SID255356470 | 0.05 | migration z between -2 and 2; enough cells | 4588 |
| PRY2 (PTPN13 like Y-linked 2) | SID255365977 | -1.98 | migration z between -2 and 2; enough cells | 5187 |
| ITGB1BP1 (integrin subunit beta 1 binding protein 1) | SID255354159 | 0.1 | migration z between -2 and 2; enough cells | 6676 |
| NRIP2 (nuclear receptor interacting protein 2) | SID255361071 | -0.8 | migration z between -2 and 2; enough cells | 4192 |
| CD1E (CD1e molecule) | SID255348749 | -2.16 (active) | migration z below -2; enough cells | 4490 |
| USP28 (ubiquitin specific peptidase 28) | SID255359524 | 0.86 | migration z between -2 and 2; enough cells | 5378 |
| TEDC2 (tubulin epsilon and delta complex 2) | SID255360688 | -4.21 | under 3300 nuclei; migration not judged | 2342 |
| FAM161A (FAM161 centrosomal protein A) | SID255361212 | -1.38 | migration z between -2 and 2; enough cells | 4172 |
| KRTAP26-1 (keratin associated protein 26-1) | SID255365525 | -0.15 | migration z between -2 and 2; enough cells | 6050 |
| PPP5C (protein phosphatase 5 catalytic subunit) | SID255351762 | 0.6 | migration z between -2 and 2; enough cells | 4422 |
| DIRC1 (disrupted in renal carcinoma 1) | SID255362346 | 0.59 | migration z between -2 and 2; enough cells | 5212 |
| THAP12 (THAP domain containing 12) | SID255351829 | 0.94 | migration z between -2 and 2; enough cells | 4876 |
| ERMARD (ER membrane associated RNA degradation) | SID255358856 | 0.75 | migration z between -2 and 2; enough cells | 6120 |
